Test results reported in article PMC3547847.

Protein sequences, listed by entry. Tags and fused reporters are not part of them.
UniProt Q9H867: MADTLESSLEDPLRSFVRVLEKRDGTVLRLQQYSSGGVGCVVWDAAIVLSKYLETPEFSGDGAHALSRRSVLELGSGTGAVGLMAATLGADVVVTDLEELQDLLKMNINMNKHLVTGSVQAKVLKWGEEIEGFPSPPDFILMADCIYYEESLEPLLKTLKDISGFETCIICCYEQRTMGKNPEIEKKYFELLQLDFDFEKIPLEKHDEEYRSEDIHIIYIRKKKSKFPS

What was measured:
[1] = molecular target: T1, METTL22 (TAP-tagged) (human) (UniProt Q9BUU2); assay: affinity purification with mass spectrometry; tandem affinity purification of C-terminally TAP-tagged methyltransferases from whole cell extracts of ponasterone A-induced EcR-293 cells; eluates on SDS-PAGE, silver stain, gel slices, LC-MS/MS; interactions scored with Decontaminator (FDR below 10%)
T1 sequence: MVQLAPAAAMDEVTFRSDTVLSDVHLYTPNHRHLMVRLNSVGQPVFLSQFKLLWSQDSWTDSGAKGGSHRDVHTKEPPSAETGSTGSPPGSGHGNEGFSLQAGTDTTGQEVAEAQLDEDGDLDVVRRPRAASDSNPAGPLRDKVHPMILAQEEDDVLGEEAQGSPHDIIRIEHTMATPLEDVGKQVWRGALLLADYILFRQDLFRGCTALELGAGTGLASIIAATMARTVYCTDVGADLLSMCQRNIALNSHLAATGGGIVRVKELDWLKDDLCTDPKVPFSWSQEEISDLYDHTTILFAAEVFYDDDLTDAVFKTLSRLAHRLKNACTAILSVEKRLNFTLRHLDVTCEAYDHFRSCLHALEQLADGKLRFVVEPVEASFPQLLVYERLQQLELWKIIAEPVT

[2] = molecular target: T2, Kin17/KIN (bait of an affinity purification) (human) (UniProt O60870); assay: affinity purification with mass spectrometry; protein affinity purification that targeted Kin17/KIN, soluble fraction; no further detail told
T2 sequence: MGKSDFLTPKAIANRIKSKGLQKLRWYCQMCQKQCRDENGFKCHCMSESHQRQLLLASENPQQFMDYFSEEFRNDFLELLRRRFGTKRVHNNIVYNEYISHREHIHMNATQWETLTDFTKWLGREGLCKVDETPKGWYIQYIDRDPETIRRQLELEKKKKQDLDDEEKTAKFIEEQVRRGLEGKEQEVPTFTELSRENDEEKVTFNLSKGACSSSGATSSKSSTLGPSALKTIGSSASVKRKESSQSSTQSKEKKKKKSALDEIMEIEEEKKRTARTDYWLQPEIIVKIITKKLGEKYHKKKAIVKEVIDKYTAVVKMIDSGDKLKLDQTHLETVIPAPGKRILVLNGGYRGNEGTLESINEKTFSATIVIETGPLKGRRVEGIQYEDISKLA

[3] = molecular target: METTL21D (TAP-tagged) (human) (UniProt Q9H867); assay: affinity purification with mass spectrometry; tandem affinity purification of C-terminally TAP-tagged methyltransferases from whole cell extracts of ponasterone A-induced EcR-293 cells; eluates on SDS-PAGE, silver stain, gel slices, LC-MS/MS; interactions scored with Decontaminator (FDR below 10%)

B1: KIN (endogenous, prey) (protein, UniProt O60870 1-393)
chain: MGKSDFLTPKAIANRIKSKGLQKLRWYCQMCQKQCRDENGFKCHCMSESHQRQLLLASENPQQFMDYFSEEFRNDFLELLRRRFGTKRVHNNIVYNEYISHREHIHMNATQWETLTDFTKWLGREGLCKVDETPKGWYIQYIDRDPETIRRQLELEKKKKQDLDDEEKTAKFIEEQVRRGLEGKEQEVPTFTELSRENDEEKVTFNLSKGACSSSGATSSKSSTLGPSALKTIGSSASVKRKESSQSSTQSKEKKKKKSALDEIMEIEEEKKRTARTDYWLQPEIIVKIITKKLGEKYHKKKAIVKEVIDKYTAVVKMIDSGDKLKLDQTHLETVIPAPGKRILVLNGGYRGNEGTLESINEKTFSATIVIETGPLKGRRVEGIQYEDISKLA
modifications: trimethylated lysine at position 135 (detected in the METTL22 purification)
**Q.** How did the binding [1] turn out when B1 was run?
**A.** binds

B2: METTL22 (prey in the KIN purification) (enzyme, UniProt Q9BUU2 1-404)
chain: MVQLAPAAAMDEVTFRSDTVLSDVHLYTPNHRHLMVRLNSVGQPVFLSQFKLLWSQDSWTDSGAKGGSHRDVHTKEPPSAETGSTGSPPGSGHGNEGFSLQAGTDTTGQEVAEAQLDEDGDLDVVRRPRAASDSNPAGPLRDKVHPMILAQEEDDVLGEEAQGSPHDIIRIEHTMATPLEDVGKQVWRGALLLADYILFRQDLFRGCTALELGAGTGLASIIAATMARTVYCTDVGADLLSMCQRNIALNSHLAATGGGIVRVKELDWLKDDLCTDPKVPFSWSQEEISDLYDHTTILFAAEVFYDDDLTDAVFKTLSRLAHRLKNACTAILSVEKRLNFTLRHLDVTCEAYDHFRSCLHALEQLADGKLRFVVEPVEASFPQLLVYERLQQLELWKIIAEPVT
**Q.** For B2, which binding [2] is on record?
**A.** binds

B3: UBXN6/UBXD1 (endogenous, prey) (protein, UniProt Q9BZV1 1-441)
chain: MKKFFQEFKADIKFKSAGPGQKLKESVGEKAHKEKPNQPAPRPPRQGPTNEAQMAAAAALARLEQKQSRAWGPTSQDTIRNQVRKELQAEATVSGSPEAPGTNVVSEPREEGSAHLAVPGVYFTCPLTGATLRKDQRDACIKEAILLHFSTDPVAASIMKIYTFNKDQDRVKLGVDTIAKYLDNIHLHPEEEKYRKIKLQNKVFQERINCLEGTHEFFEAIGFQKVLLPAQDQEDPEEFYVLSETTLAQPQSLERHKEQLLAAEPVRAKLDRQRRVFQPSPLASQFELPGDFFNLTAEEIKREQRLRSEAVERLSVLRTKAMREKEEQRGLRKYNYTLLRVRLPDGCLLQGTFYARERLGAVYGFVREALQSDWLPFELLASGGQKLSEDENLALNECGLVPSALLTFSWDMAVLEDIKAAGAEPDSILKPELLSAIEKLL
**Q.** With B3 as the binder, how does the binding [3] read?
**A.** binds

These are yes or no findings as the source states them, for the method shown. Binding seen in cells or lysates may run through a third protein. A yes stands for co-enrichment or nearness to the bait. Other partners may have been found. For part of these data: Tags and fused reporters may be left off the sequences shown.
